Our source for the binding values is PMC5399293, “Hierarchical assembly of centriole subdistal appendages via centrosome binding proteins CCDC120 and CCDC68” (Nature Communications, 2017).

The experiment deals with CEP170, bait of the mass spectrometry screen (human). The experiment is described as follows: affinity purification with mass spectrometry; screen of CEP170-interacting proteins by mass spectrometry; bait and cells not told.

Results are given in words; binding and its absence hold for the method and conditions named. In cells and extracts the contact can be indirect. These calls come from enrichment with a bait or labelling near it, and not all partners need be listed.

B1: CCDC68, hit of the mass spectrometry screen (protein, UniProt Q9H2F9 1-335)
chain: MTTVTVTTEIPPRDKMEDNSALYESTSAHIIEETEYVKKIRTTLQKIRTQMFKDEIRHDSTNHKLDAKHCGNLQQGSDSEMDPSCCSLDLLMKKIKGKDLQLLEMNKENEVLKIKLQASREAGAAALRNVAQRLFENYQTQSEEVRKKQEDSKQLLQVNKLEKEQKLKQHVENLNQVAEKLEEKHSQITELENLVQRMEKEKRTLLERKLSLENKLLQLKSSATYGKSCQDLQREISILQEQISHLQFVIHSQHQNLRSVIQEMEGLKNNLKEQDKRIENLREKVNILEAQNKELKTQVALSSETPRTKVSKAVSTSELKTEGVSPYLMLIRLRK
With B1, the binding entry is on record as “binds”.
